# Test results published in US6548307B2, “Determination of logP coefficients via a RP-HPLC column” (Pfizer Inc., priority 2000, dated 2003).
# Settings: pH 7.4
# Protocol: The mobile phase consisted, in all cases, of 20 mM MOPS buffer at pH 7.4, and methanol in varying proportions from 70 to 15% v/v. […] The capacity factors data (k′=(tR−t0)/t0) obtained at various amounts of methanol were then extrapolated to 0% methanol and reported as log k′w, using a linear procedure. […] Injections of pure methanol were used to determine t0, i.e. the dead time, while tR has the usual meaning of the retention time for the analyte.
# All the chromatographic runs were performed on a HP-1100 HPLC ChemStation at the ambient temperature. The columns used were Supelcosil LC-ABZ, 5μm, 4.6×50 mm. […] Columns having different silica bond lots were tested to ensure reproducibility. Samples were dissolved in 1:1 methanol/water at a concentration of 10-30 μg/mL. The flow rate was 0.5, 1 or 2 mL/min, depending on the lipophilicity range. Three lipophilicity ranges were established using, in all cases, three points for the extrapolation to k′w, as described in the table below.
# The samples were placed in the appropriate range by estimating their lipophilicity via computed values, or by prior experience with a given class. In each case the entire group of samples was run before the column is equilibrated to the next condition, in an automated fashion, and the initial estimation need not be very accurate. […]
compound,measurement,value
CN1C(=O)CN=C(c2ccccc2)c2cc(Cl)ccc21 [Diazepam],log k′2 (capacity factor extrapolated to 0% methanol),2.63
